# Where a name gives a salt, the structure may show the parent alone. In all, about 1,200 compounds went through this assay and about 50 (4%) showed activity. Cut-off read from the data, not from the text of the source: all actives reach 1.3 or more but so do some inactives. The list shows a part of the results.
# Test system: Lgr5 (MarsCy1-Lgr5-EGFP, U2OS)
# Assay: cell-surface Lgr5 expression (SCi1 fluorescence, background-subtracted) relative to WT DMSO (fold of DMSO control); higher = more Lgr5 at the plasma membrane, active = hit call of the paper
# Details: U2OS MarsCy1-Lgr5-EGFP stable; treatment time: overnight; 16 µM; library: Johns Hopkins Clinical Compound Library
row,SMILES,cell-surface Lgr5 expression
1,O=P([O-])([O-])[O-].[Bi+3] [Bismuth (III) phosphate],inactive: 0.855
2,C[C@@H]1C(=O)O[C@H]2C[C@@]34[C@H]5C[C@@H](C(C)(C)C)[C@]36[C@@H](OC(=O)[C@@H]6O)O[C@@]4(C(=O)O5)[C@]21O [Ginkgolide A],inactive: 0.772
3,NC(=O)c1ncn([C@@H]2O[C@H](CO)[C@@H](O)[C@H]2O)c1N [Acadesine (AICAR)],inactive: 1.19
4,CCC(=O)O[C@H]1[C@H](O[C@@H]2[C@@H](C)[C@H](O[C@H]3C[C@@](C)(OC)[C@@H](O)[C@H](C)O3)[C@@H](C)C(=O)O[C@H](CC)[C@@](C)(O)[C@H](O)[C@@H](C)C(=O)[C@H](C)C[C@@]2(C)O)O[C@H](C)C[C@@H]1N(C)C [Erythromycin estolate],inactive: 0.567
5,Cc1ccc(S(=O)(=O)NCl)cc1 [Chloramine-T hydrate],inactive: 0.672
6,C[C@@H]1O[C@@H]1P(=O)(O)O [Fosfomycin calcium (Phosphomycin calcium salt)],inactive: 0.949
7,C[C@@H]1O[C@@H]1P(=O)(O)O [Fosfomycin tromethamine],inactive: 0.897
8,C[C@@H]1CN(c2c(F)c(N)c3c(=O)c(C(=O)O)cn(C4CC4)c3c2F)C[C@H](C)N1 [Sparfloxacin],inactive: 0.826
9,CN1CCN(C2=Nc3ccccc3Sc3ccc(Cl)cc32)CC1 [Clothiapine],inactive: 0.886
10,O=C([O-])C(O)C(O)C(=O)[O-].[K+].[Na+] (stereo not given) [Potassium sodium tartrate tetrahydrate],inactive: 1.1
11,CCn1cc(C(=O)O)c(=O)c2cc(F)c(N3CCNC(C)C3)c(F)c21 (stereo not given) [Lomefloxacin],inactive: 0.897
12,COc1cc(C)nc(-n2nc(C)cc2OC)n1 [Epirizole (Mepirizole)],inactive: 1.12
13,CS(=O)(=O)Nc1ccc([N+](=O)[O-])cc1Oc1ccccc1 [Nimesulide],inactive: 1.13
14,CNC(=C[N+](=O)[O-])NCCSCc1csc(CN(C)C)n1 [Nizatidine],inactive: 0.896
15,OCc1ccccc1 [Benzyl alcohol],inactive: 0.798
16,CO[C@@H]1[C@@H](O[C@@H]2O[C@H](C)[C@@H](O[C@H]3C[C@@](C)(O)[C@@H](OC(=O)CC(C)C)[C@H](C)O3)[C@H](N(C)C)[C@H]2O)[C@@H](CC=O)C[C@@H](C)C(=O)/C=C/[C@@H]2O[C@@H]2C[C@@H](C)OC(=O)C[C@H]1OC(C)=O [Carbomycin (Magnamycin A)],inactive: 0.996
17,C[C@H]1[C@H](NC(=O)/C(=N\OC(C)(C)C(=O)O)c2csc(N)n2)C(=O)N1S(=O)(=O)O [Aztreonam],inactive: 0.88
18,CCc1c2c(nc3ccc(OC(=O)N4CCC(N5CCCCC5)CC4)cc13)-c1cc3c(c(=O)n1C2)COC(=O)[C@]3(O)CC [Irinotecan hydrochloride trihydrate],inactive: 0.897
19,CSCC[C@H](N)C(=O)O [l-methionine],inactive: 1.14
20,Cc1ccc(/C(=C\CN2CCCC2)c2ccccn2)cc1 [Triprolidine],inactive: 0.932

# Reformatted with tabs: entries from further up.
row	SMILES	cell-surface Lgr5 expression
19	CSCC[C@H](N)C(=O)O [l-methionine]	inactive: 1.14
20	Cc1ccc(/C(=C\CN2CCCC2)c2ccccn2)cc1 [Triprolidine]	inactive: 0.932

# More entries follow.

row,SMILES,cell-surface Lgr5 expression
1,CC(C)(O/N=C(\C(=O)N[C@@H]1C(=O)N2C(C(=O)[O-])=C(C[n+]3ccccc3)CS[C@H]12)c1csc(N)n1)C(=O)O [Ceftazidime],inactive: 0.744
2,"CCCCCCCC/C=C\CCCCCCCC(=O)[O-].[K+] [Oleic acid, potassium salt]",inactive: 1.17
3,NC(=O)c1ncn([C@@H]2O[C@H](CO)[C@@H](O)[C@H]2O)c1O [Mizoribine],inactive: 1.05
4,CCC(=O)[C@@]1(C)[C@H](C)C[C@H]2[C@@H]3CCC4=CC(=O)C=C[C@]4(C)[C@H]3[C@@H](O)C[C@@]21C [Rimexolone],active: 1.39
5,CC(=O)Nc1c(I)c(NC(C)=O)c(I)c(C(=O)O)c1I [Sodium diatrizoate],inactive: 0.829
6,CC(=O)Nc1c(I)c(NC(C)=O)c(I)c(C(=O)O)c1I [Meglumine diatrizoate],inactive: 1.15
7,CN(N=O)C(=O)N[C@@H](C=O)[C@@H](O)[C@H](O)[C@H](O)CO [Streptozocin],inactive: 1.05
8,CCOC(=O)Nc1ccc2c(c1)N(C(=O)CCN1CCOCC1)c1ccccc1S2 [Moricizine hydrochloride],inactive: 0.934
9,O=c1c(-c2ccc(O)cc2)coc2cc(O)cc(O)c12 [Genistein],inactive: 0.977
10,O=C([O-])CC(O)(CC(=O)[O-])C(=O)[O-].[Li+].[Li+].[Li+] [Tri-lithium citrate],inactive: 1.06
11,C[N+](C)(C)CCO.O=C([O-])CC(O)(CC(=O)O)C(=O)O [Choline dihydrogen citrate],inactive: 0.803
12,CC(C)(CO)[C@@H](O)C(=O)NCCCO [Dexpanthenol (D-Panthenol)],inactive: 1.2
13,CNC[C@H](O)c1cccc(O)c1 [L-Phenylephrine hydrochloride],inactive: 0.598
14,CCOc1ccccc1C(N)=O [Ethenzamide (2-ethoxybenzamide)],inactive: 1.23
15,"NS(=O)(=O)c1ccc(C(=O)O)cc1 [Carzenide (4-Carboxybenzenesulfonamide, 97%)]",active: 1.3
16,CCN(CC)CCCC(C)Nc1c2ccc(Cl)cc2nc2ccc(OC)cc12 (stereo not given) [Quinacrine],inactive: 0.864
17,Cc1nc(C)c(Cl)c(O)c1Cl [Clopidol],inactive: 1.05
18,CCCCCCCCCCCCCCCC[N+](C)(C)CCN(Cc1ccc(OC)cc1)c1ncccn1 [Thonzonium bromide],inactive: 1.56
19,CC1=C(C)C(=O)C(CCCCC#CCCCC#CCO)=C(C)C1=O [Docebenone (AA-861)],inactive: 1.25
20,C#C[C@]1(O)CC[C@H]2[C@@H]3CCc4cc(OC)ccc4[C@H]3CC[C@@]21C [Mestranol (Ethynylestradiol 3-Methyl Ester)],inactive: 0.929

row,SMILES,cell-surface Lgr5 expression
1,CC(C)NCC(O)c1ccc(NS(C)(=O)=O)cc1 (stereo not given) [Sotalol],inactive: 1.13
2,O.O.O.O.O.O.O=C([O-])CCC(=O)[O-].[Na+].[Na+] [Sodium succinate dibasic hexahydrate],inactive: 1.06
3,Clc1ccccc1CN1CCc2sccc2C1 [Ticlopidine],inactive: 0.943
4,Cc1cc(C(C)(C)CC(C)(C)C)ccc1OCCOCC[N+](C)(C)Cc1ccccc1 [Methylbenzethonium chloride],active: 1.67
5,CN(C)CCCN1c2ccccc2CCc2ccc(Cl)cc21 [Clomipramine],inactive: 1.29
6,C#C[C@]1(OC(C)=O)CC[C@H]2[C@@H]3CCC4=C[C@@H](OC(C)=O)CC[C@@H]4[C@H]3CC[C@@]21C [Ethynodiol diacetate],inactive: 1.02
7,Nc1ccc(S(=O)(=O)Nc2ncccn2)cc1 [Sulfadiazine],inactive: 0.819
8,CO[C@@]1(NC(=O)C(C(=O)O)c2ccc(O)cc2)C(=O)N2C(C(=O)O)=C(CSc3nnnn3C)CO[C@@H]21 (stereo not given in full) [Moxalactam],inactive: 0.813
9,CCCCCCCCCCCCOS(=O)(=O)[O-].[Na+] [Sodium lauryl sulfate (Sodium dodecyl sulfate)],inactive: 0.864
10,CCCCCCCCCCCCOS(=O)(=O)[O-].[Na+] [Sodium lauryl sulfate (SDS)],inactive: 0.793
11,CC[N+](CC)(CC)CC [Tetraethylammonium chloride hydrate],inactive: 1.13
12,CCC(Br)(CC)C(=O)NC(=O)NC(C)=O [Acecarbromal (acetylcarbromal)],inactive: 1.07
13,Clc1ccc2c(c1)N=C(N1CCNCC1)c1ccccc1N2 [N-Desmethylclozapine],inactive: 0.803
14,CC(=O)OC/C=C(C)/C=C/C=C(C)/C=C/C1=C(C)CCCC1(C)C [Vitamin A acetate (all trans-Retinol acetate)],inactive: 1.09
15,CC(=O)OC/C=C(C)/C=C/C=C(C)/C=C/C1=C(C)CCCC1(C)C [Vitamin A (acetate)],inactive: 0.841
16,NS(=O)(=O)c1cc2c(cc1Cl)N=C(CSCc1ccccc1)NS2(=O)=O [Benzthiazide],inactive: 0.919
17,CS(=O)(=O)c1ccc([C@@H](O)[C@@H](CO)NC(=O)C(Cl)Cl)cc1 [Thiamphenicol],inactive: 1.01
18,C[C@@H](c1ncncc1F)[C@](O)(Cn1cncn1)c1ccc(F)cc1F [Voriconazole],inactive: 0.371
19,O=C(O)Cc1ccccc1Nc1c(Cl)cccc1Cl [Diclofenac sodium salt],inactive: 1.04
20,Br.N [Ammonium bromide],inactive: 1.09
